We go through one molecule from PMC5325399.

This assay addresses E-cadherin (CDH1) (mouse (endogenous in G-2 cells)). Kind of assay: co-IP; 200 μg G-2 cell lysate in CHAPS buffer (100 mM Tris-HCl pH 7.4, 50 mM NaCl, 1 mM EDTA, 1% NP40, 0,1% CHAPS); anti-mouse CEACAM1 antibody CC1 or anti-E-cadherin antibodies on protein G sepharose, overnight at 4°C; immunoblot with anti-β-catenin and anti-CEACAM1.

No constants are given. Whether binding was seen depends on the method and setting. Binding seen in cells or lysates may run through a third protein.

B1: carcinoembryonic antigen-related cell adhesion molecule 1 (CEACAM1) (protein, UniProt P31809 35-521)
chain: EVTIEAVPPQVAEDNNVLLLVHNLPLALGAFAWYKGNTTAIDKEIARFVPNSNMNFTGQAYSGREIIYSNGSLLFQMITMKDMGVYTLDMTDENYRRTQATVRFHVHPILLKPNITSNNSNPVEGDDSVSLTCDSYTDPDNINYLWSRNGESLSEGDRLKLSEGNRTLTLLNVTRNDTGPYVCETRNPVSVNRSDPFSLNIIYGPDTPIISPSDIYLHPGSNLNLSCHAASNPPAQYFWLINEKPHASSQELFIPNITTNNSGTYTCFVNNSVTGLSRTTVKNITVLEPVTQPFLQVTNTTVKELDSVTLTCLSNDIGANIQWLFNSQSLQLTERMTLSQNNSILRIDPIKREDAGEYQCEISNPVSVRRSNSIKLDIIFDPTQGGLSDGAIAGIVIGVVAGVALIAGLAYFLYSRKSGGGSDQRDLTEHKPSTSNHNLAPSDNSPNKVDDVAYTVLNFNSQQPNRPTSAPSSPRATETVYSEVKKK
As for B1, the binding entry is listed as “no binding”.
